Laboratory results as given in PubChem BioAssay AID1487 (National Center for Advancing Translational Sciences (NCATS), 2009).
The list shows a part of the results. These are further read-outs of the screen, such as a control signal, another cell line or another target. No call is given for them. Most of these compounds were active or inconclusive in the main read-out, so they are no random draw. Potencies come from curve fits of mixed quality, noted in brackets.

Experiment: qHTS Assay for Modulators of Lamin A Splicing
Conditions: HeLa LMNA splicing GFP/RFP minigene ratio, 48 h
How it was run: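 S3 HeLa stable clones carrying a lamin A-EGFP splicing minigene plus DsRed2 were seeded at 600 cells/well in Opti-MEM with 2% FBS, pin-dosed and incubated 48 h at 37°C. Acumen cytometry (488 nm) gave the GFP/RFP total-intensity ratio.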

[1] = measured here: GFP splicing reporter channel
[2] = measured here: RFP viability control channel

Structure (SMILES) | AC50 [1] | AC50 [2]
Cc1cc(NC(c2cccnc2)c2ccc3cccnc3c2O)no1 (centres undefined) | 35.5 µM [rising, single point] | 15.8 µM [rising, partial curve]
CCOC(=O)Cc1[nH]nc2c1C(C1C=CCCC1)C(C#N)=C(N)O2 (centres undefined) | 31.6 µM [rising, single point] | 35.5 µM [rising, single point]
Cc1ccc(O)c(-c2cc(C(=O)Nc3c(C)n(C)n(-c4ccccc4)c3=O)[nH]n2)c1 | 0.01 µM [falling, full curve, poor fit] | 
Cc1cc(C)n(C(=O)CCN2C(=O)c3ccccc3C2=O)n1 | 5.62 µM [rising, single point] | 
CC(C)CN(CC(C)C)C(=O)Cc1coc2ccc3ccccc3c12 | 12.6 µM [rising, partial curve, poor fit] | 17.8 µM [rising, single point]
Nc1nc2c(Cl)cc(Cl)cc2s1 | 0.00447 µM [rising, full curve, poor fit] | 
Cc1ccc(O)c(C(=O)CC(=O)c2ccccc2Cl)c1 |  | 12.6 µM [rising, single point]
COc1ccccc1CNc1ncnc2ccc(-c3ccc(N(C)C)cc3)cc12 | 22.4 µM [falling, partial curve] | 2.24 µM [falling, partial curve]
N#Cc1cccc(NC(=O)NCCc2c[nH]c3ccccc23)c1 | 0.158 µM [falling, full curve, poor fit] | 0.178 µM [falling, full curve, poor fit]
Cc1cc(NC2CCCCC2)nc(NCc2ccccc2)n1 | 14.1 µM [rising, partial curve] | 14.1 µM [rising, partial curve]
CCCOC(=O)/C(C(N)=NCc1ccccc1)=C(\O)OCCC |  | 14.1 µM [rising, single point]
O=C(NCc1ccc(Cl)cc1)C1CCCN(c2ncnc3onc(-c4ccc(F)cc4)c23)C1 (centres undefined) |  | 11.2 µM [rising, single point]
COc1cc(/C=C\C(=O)NCc2ccc3[nH]c(C)cc3c2)cc(OC)c1OC | 35.5 µM [rising, single point] | 20 µM [rising, partial curve]
OC(CCN1CCCCC1)(c1ccccc1)c1ccccc1 | 25.1 µM [falling, single point] | 31.6 µM [falling, single point]
Cn1cc([N+](=O)[O-])c(C(=O)Nc2ccc3c(c2)OCCO3)n1 | 28.2 µM [falling, single point] | 35.5 µM [falling, single point]
COc1ccc(-c2nnc(SCC(=O)NCC3CCCO3)n2C)cc1 (centres undefined) |  | 0.794 µM [falling, single point]
COCCNC(=O)CSc1nc(-c2ccccc2)c(-c2ccccc2)o1 |  | 35.5 µM [rising, single point]
Cc1cc(-c2cc(-c3ccc(Cl)cc3)nc(N)c2C#N)co1 |  | 11.2 µM [falling, partial curve]
O=C(NC1CCCC1)c1ccc2c(c1)N(Cc1ccc(F)cc1)C(=O)c1ccccc1S2 | 3.55 µM [rising, partial curve] | 
CC1=C(C(=O)Nc2cccc(C)c2C)C(c2cccs2)NC(=S)N1 (centres undefined) |  | 7.94 µM [rising, partial curve]
COc1cccc(N2C(=O)CC(N3CCN(CCN=CC4=C(O)CC(C)(C)CC4=O)CC3)C2=O)c1 (centres undefined) | 0.00891 µM [rising, full curve, poor fit] | 2.82 µM [rising, partial curve, poor fit]
CCC(C)NS(=O)(=O)c1ccc(S(=O)(=O)Nc2cc3c(cc2C(C)=O)OCO3)cc1 (centres undefined) | 14.1 µM [rising, partial curve] | 22.4 µM [rising, single point]
CCCN1CCN(C(=S)Nc2ccc([N+](=O)[O-])cc2)CC1 |  | 12.6 µM [rising, single point]
O=C(NCCNc1ccc([N+](=O)[O-])cc1C(F)(F)F)c1ccc(F)cc1 |  | 22.4 µM [rising, single point]
COc1ccc(F)cc1C(=O)C1CCCN(Cc2ccc(Oc3ncccn3)cc2)C1 (centres undefined) |  | 0.00355 µM [falling, full curve, poor fit]
Cc1cccc(-c2noc(CN(C(C)C)S(=O)(=O)c3ccc(F)cc3)n2)c1 |  | 12.6 µM [rising, partial curve]
N#CC1=C(N)C(C#N)(C#N)[C@H](c2ccoc2)[C@H]2CN(Cc3ccccc3)CC=C12 |  | 7.94 µM [rising, partial curve]
COc1cccc(-c2nc(CS(=O)CC(=O)N3CCN(c4cccc(C(F)(F)F)c4)CC3)c(C)o2)c1 (centres undefined) | 22.4 µM [falling, partial curve, poor fit] | 0.631 µM [falling, partial curve, poor fit]

Structure (SMILES) | AC50 [1] | AC50 [2]
Cc1ccc(SCC(=O)Nc2ccc3oc(-c4cccc(C)c4)nc3c2)cc1 | 0.00794 µM [falling, full curve] | 0.0251 µM [falling, full curve, poor fit]
O=C(Cn1cnc2c(cnn2-c2ccccc2)c1=O)N1CCCc2ccccc21 | 12.6 µM [rising, single point] | 20 µM [rising, single point]
CCNc1ncc2nc(-c3cccs3)c(=O)n(Cc3cccs3)c2n1 | 14.1 µM [falling, partial curve] | 25.1 µM [falling, partial curve, poor fit]
O=C(COc1ccc(Cl)cc1)NC1=NN(c2ccccc2)C(=O)C1 |  | 11.2 µM [rising, single point]
CCCOc1ccc(-c2nnn(CC(=O)c3ccc4c(c3)OCCO4)n2)cc1 | 20 µM [rising, partial curve] | 
CCn1c(=O)cc(SCC(=O)Nc2ccc(C)cn2)c2ccccc21 |  | 17.8 µM [falling, single point]
Cn1c(=O)c(/C=C/c2ccccc2)nc2ccccc21 |  | 0.0316 µM [rising, full curve, poor fit]
Cc1ccc(-n2c(C)cc(/C=N/NC(=O)c3ccncc3)c2C)c(C)c1 |  | 11.2 µM [rising, single point]
COCCNC(=O)COC(=O)/C=C/c1c(C)nn(Cc2ccc(Cl)cc2Cl)c1Cl |  | 31.6 µM [rising, single point]
CN[C@]1(C)[C@H]2CC[C@@H](C2)C1(C)C | 3.16 µM [falling, single point] | 
CCCCNC(=O)c1sc(=S)n(-c2ccccc2OC)c1N | 3.16 µM [falling, single point] | 2.82 µM [falling, partial curve]
CC(C)(Oc1ccc([C@@H]2CC2(Cl)Cl)cc1)C(=O)O | 12.6 µM [falling, single point] | 14.1 µM [falling, single point]
CCCCC(=O)Nc1cccc(-c2csc(-c3ccccc3)n2)c1 | 31.6 µM [rising, single point] | 35.5 µM [rising, single point]
O=C(NCC1(c2ccccc2)CCCC1)C1(c2ccccc2)CCCC1 |  | 14.1 µM [rising, single point]
CCN(CC)c1ccc(/C=N/Nc2ccc(C)cc2)c(O)c1 | 17.8 µM [rising, single point] | 25.1 µM [rising, single point]
CNC(=S)N/N=C/c1cc(C)ccc1C | 20 µM [falling, single point] | 35.5 µM [falling, single point]
COc1ccccc1-c1n[nH]c(=S)n1-c1ccccc1 |  | 5.62 µM [rising, single point]
Cc1c(C(=O)N/N=C/C(C)C)[nH]c2c([N+](=O)[O-])cccc12 |  | 20 µM [rising, partial curve]
Cc1cc(Oc2ccc3ccccc3c2)nc(SCC(=O)c2ccccc2)n1 |  | 35.5 µM [rising, single point]
COc1ccc(OC)c(C2C=C(C34CC5CC(CC(C5)C3)C4)NC(=S)N2)c1 (centres undefined) |  | 17.8 µM [rising, single point]
COc1ccc(/C=C/c2nc3ccccc3n2Cc2ccccc2OC)cc1 |  | 35.5 µM [rising, single point]
COC(=O)CN1C(=O)S/C(=C/c2ccc(N3CCCCC3)o2)C1=O | 25.1 µM [falling, single point] | 0.0708 µM [falling, single point]
Cc1cccc(N2CCN(C(=S)c3ccc([N+](=O)[O-])cc3)CC2)c1 | 35.5 µM [rising, single point] | 31.6 µM [rising, single point]
CC1Cc2ccccc2N1C(=S)Nc1ccc(S(N)(=O)=O)cc1 (centres undefined) | 22.4 µM [rising, single point] | 25.1 µM [rising, single point]
CCOC(=O)c1ccc2c(c1)n(CC)c(/C=C/N(C)c1ccccc1)[n+]2CC | 3.98 µM [rising, partial curve, poor fit] | 20 µM [rising, single point]
COC(=O)CSC1=C(C#N)C(c2ccc(C)o2)CC(=O)N1 (centres undefined) | 0.282 µM [falling, partial curve, poor fit] | 
O=C(N/N=C/c1ccccc1OCc1ccccc1)c1cccnc1 |  | 12.6 µM [rising, single point]

A different layout for 2 compounds above.
O=C(NCCNc1ccc([N+](=O)[O-])cc1C(F)(F)F)c1ccc(F)cc1
  AC50 [2]: 22.4 µM [rising, single point]
COc1ccc(F)cc1C(=O)C1CCCN(Cc2ccc(Oc3ncccn3)cc2)C1 (centres undefined)
  AC50 [2]: 0.00355 µM [falling, full curve, poor fit]
